Results taken from publication doi:10.1101/2023.07.04.547663.
No constants are given. Whether binding was seen depends on the method and setting. Binding seen in cells or lysates may run through a third protein. These calls come from enrichment with a bait or labelling near it, and not all partners need be listed.

Biological target: His6 PfGEXP15 UD, shorter fragment (853-1266 bp) (Plasmodium falciparum) (UniProt Q8IJ89)
Assay: affinity purification with mass spectrometry

exportin-7 (from UniProt C0H530)
binding: binds
